# Percent effect of library compounds

Amino acid sequences for entries named in this document (tags omitted).
UniProt I6X8D2, whole entry: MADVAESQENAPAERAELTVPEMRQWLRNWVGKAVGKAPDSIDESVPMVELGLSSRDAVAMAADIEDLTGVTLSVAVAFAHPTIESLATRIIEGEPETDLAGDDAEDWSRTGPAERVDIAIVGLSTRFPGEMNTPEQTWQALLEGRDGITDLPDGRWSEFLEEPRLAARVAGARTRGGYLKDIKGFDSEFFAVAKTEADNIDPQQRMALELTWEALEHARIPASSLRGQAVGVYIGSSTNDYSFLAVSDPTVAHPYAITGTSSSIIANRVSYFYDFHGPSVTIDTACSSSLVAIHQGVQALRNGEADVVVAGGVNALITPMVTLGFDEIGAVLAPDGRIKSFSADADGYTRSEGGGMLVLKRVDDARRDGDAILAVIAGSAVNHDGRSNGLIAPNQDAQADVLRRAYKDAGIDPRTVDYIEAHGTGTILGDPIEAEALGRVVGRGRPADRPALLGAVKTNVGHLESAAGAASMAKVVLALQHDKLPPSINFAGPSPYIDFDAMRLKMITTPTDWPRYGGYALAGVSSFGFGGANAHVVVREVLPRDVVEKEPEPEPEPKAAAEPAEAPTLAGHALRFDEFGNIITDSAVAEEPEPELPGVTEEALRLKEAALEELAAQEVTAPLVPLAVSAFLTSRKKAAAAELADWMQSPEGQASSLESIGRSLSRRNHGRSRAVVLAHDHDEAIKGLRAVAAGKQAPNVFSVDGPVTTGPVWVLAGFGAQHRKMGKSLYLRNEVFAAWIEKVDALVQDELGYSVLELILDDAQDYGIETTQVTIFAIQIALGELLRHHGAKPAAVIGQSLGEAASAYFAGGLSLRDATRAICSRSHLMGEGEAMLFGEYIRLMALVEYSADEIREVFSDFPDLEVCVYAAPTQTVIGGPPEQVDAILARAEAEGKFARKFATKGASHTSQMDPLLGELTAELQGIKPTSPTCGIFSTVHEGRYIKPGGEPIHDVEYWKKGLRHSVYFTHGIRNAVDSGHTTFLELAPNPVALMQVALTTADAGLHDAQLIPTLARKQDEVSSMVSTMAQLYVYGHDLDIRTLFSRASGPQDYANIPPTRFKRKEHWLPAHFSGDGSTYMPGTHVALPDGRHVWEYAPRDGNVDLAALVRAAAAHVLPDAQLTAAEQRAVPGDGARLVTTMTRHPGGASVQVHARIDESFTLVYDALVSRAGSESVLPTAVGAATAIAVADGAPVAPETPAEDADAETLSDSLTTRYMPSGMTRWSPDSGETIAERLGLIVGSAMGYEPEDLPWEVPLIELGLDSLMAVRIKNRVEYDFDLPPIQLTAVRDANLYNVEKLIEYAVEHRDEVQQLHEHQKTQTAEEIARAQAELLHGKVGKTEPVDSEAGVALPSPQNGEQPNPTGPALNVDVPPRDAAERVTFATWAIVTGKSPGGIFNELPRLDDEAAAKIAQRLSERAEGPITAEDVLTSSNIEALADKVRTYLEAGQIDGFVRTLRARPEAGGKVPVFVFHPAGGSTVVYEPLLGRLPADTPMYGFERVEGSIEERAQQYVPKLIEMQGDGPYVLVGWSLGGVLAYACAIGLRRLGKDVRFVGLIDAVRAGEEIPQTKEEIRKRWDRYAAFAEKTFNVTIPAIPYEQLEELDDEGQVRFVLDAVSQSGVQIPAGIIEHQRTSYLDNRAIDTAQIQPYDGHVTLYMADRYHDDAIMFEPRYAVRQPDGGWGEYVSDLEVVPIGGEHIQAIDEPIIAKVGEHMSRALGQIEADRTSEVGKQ

From ChEMBL document CHEMBL3988442, “University of Dundee, Small-Polar-MMV Screening Library” (2021).

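Enzyme assay of the thioesterase domain of polyketide synthase 13; the read-out is not stated. Target: Polyketide synthase Pks13, Mycobacterium tuberculosis (UniProt I6X8D2). Compounds at 30 µM. The record gives no direction; the compounds picked for IC50 retests had high values, so higher reads as stronger inhibition. Of about 67,000 compounds tested this way, about 300 (0.46%) reached 50% or more in at least one test.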

Results are given as percent effect. The controls that fix the scale are not given in the record; negative values are as filed. The compounds are a random part of those screened.

compound	effect
Cc1cc(C)c(C(=O)NC(c2nnc3n2CCNCC3)C(C)C)c(C)c1 (configuration not stated)	-27.41%
O=C1OCCN1C1CCN(Cc2cc3n(n2)CCCNC3)CC1	-12.41%
Cc1nc2cc(=O)[nH]n2c(C)c1CC(=O)NCCCc1ccccc1	-4.146%
COc1cc2c(cc1OC)C(=O)C(Sc1nnnn1C)C2 (configuration not stated)	5.306%
Cc1cc(C)n(CC2CCCN2Cc2nc(N)c3ccccc3n2)n1 (configuration not stated)	-21.57%
CN1CC[C@@H]2OC[C@H](C(=O)N(C)Cc3ccccn3)C[C@@H]2C1	-25.11%
O=C(c1ccc(Cl)cc1)N1CCC(N2CCCCC2=O)CC1	-11.72%
CCn1nc2c(cc1=O)CN(CC(=O)Nc1nc(C)c(C)s1)CC2	9.793%
Cc1nn(C)c(N2CCOCC2)c1CNC(C)c1ccccn1 (configuration not stated)	-19.77%
CC(C)(C)c1ccc(=O)n(CN2CCCC(C(F)(F)F)C2)n1 (configuration not stated)	-12.49%
Cc1ccccc1-n1c(C)cc(=O)[nH]c1=O	30.79%
O=C(O)c1ccccc1C1CCN(Cc2ccc(-c3cc[nH]n3)o2)C1 (configuration not stated)	-10%
O=C(c1cc(C2CC2)nc2onc(-c3ccccc3)c12)N1CC(O)C1	-15.45%
COc1ccc(CCC(=O)Nc2ccc3ncn(C)c(=O)c3c2)cc1	-0.8986%
O=C(NCCn1ccc(-c2ccncc2)n1)c1ccncc1	-10.48%
CCOC(=O)c1c(NC(=O)CN2CCN(C(C)=O)CC2)sc(C)c1C	-24.48%
COc1ccc(Br)c(C(=O)N2CCC(c3n[nH]c(C4CC4)n3)CC2)c1	-8.089%
O=C1NCCO[C@H]2CN(C(=O)CC3Cc4ccccc4C3)CC[C@@H]12	-11.95%
c1cnn(C2CN(c3nc(-c4ccncc4)nc4c3CCC4)C2)c1	-2.64%
Cn1nc(C2CN(S(C)(=O)=O)C2)c2nccnc21	10.4%
CC(C)(C)c1noc(CCC(=O)N2CCNC(=O)C2)n1	7.882%
CC(c1nc(C2CC2)no1)N1CCN(Cc2nnc(C3CC3)o2)CC1 (configuration not stated)	-15.51%
COCCC1(CO)CCCN(C(=O)c2cc(Cl)ccc2F)C1 (configuration not stated)	-47.26%
Cc1cnn(CC2CCCN2C(=O)c2cnc3n[nH]c(C)c3c2)c1 (configuration not stated)	-12.67%
c1cnc(NC[C@@H]2CCC[C@@H]3CN(Cc4cccnc4)C[C@@H]32)nc1	-15.36%
O=C(Cc1ccccn1)N1CCC2(CC1)CN(CC1CC1)C(=O)CO2	-25.22%
COCC(=O)N1CC[C@@H]2O[C@@H](COCc3csc(C)n3)CC[C@@H]21	-13.16%
CCCN(C)C(=O)c1cc(S(=O)(=O)NCC)ccc1C	-6.592%
Cc1cccc(N2CCc3ncnc(C4CC4)c3CC2)n1	-36.18%
Cc1ncsc1CNc1ccn(Cc2ccccc2)n1	-12.62%
CC1(C)CN(C(=O)Nc2ccc(Cn3cccn3)cc2)CCO1	-13.99%
Cc1nc[nH]c1CN1C[C@@H]2CC[C@H](C1)N(C(=O)c1cnn(C)c1)C2	4.525%
Cn1cccc1C(=O)N1CCCn2nc(CCC(=O)NC3CC3)cc2C1	-20.77%
CCOCCCNC(=O)C(NC(=O)Cc1cccs1)c1ccccc1 (configuration not stated)	-10.12%
CCC(C)(O)CNc1ccc(S(=O)(=O)C(F)F)cc1 (configuration not stated)	6.463%
Cc1oncc1C(=O)N[C@@H]1CN(c2ncccn2)C[C@@H]2CCCO[C@@H]21	-14.62%
Cn1cnc2c1CCN(Cc1csc(-c3ccccc3F)n1)C2	-21.41%
CC(CC(=O)NCCS(N)(=O)=O)C1CCCCC1 (configuration not stated)	-4.397%
COCC(=O)N1CCC2(COCc3cnc(-c4ccccc4)nc32)C1 (configuration not stated)	-39.28%
O=c1c2cc3c(cc2nnn1Cc1ccccc1)OCCO3	-5.641%
CCCC(C#N)NC(=O)Cc1csc(CC)n1 (configuration not stated)	-27.21%
Cc1ccc(NC2CCN(C(=O)CCc3ccccc3)CC2)nn1	1.2%
Cc1ccnc(N2CCC(OCCN3CCCCC3)C2)n1 (configuration not stated)	-30.05%
CC(C)COCc1cncc2c1CCN(Cc1cnn(C)c1)C2	-3.743%
COC(=O)NCCC(=O)NC(C)Cc1ccccc1Br (configuration not stated)	-7.461%
Cc1ccsc1C1CC(=O)Nc2c1cnn2C(C)C (configuration not stated)	-9.929%
COc1cccc(C2SCC(=O)Nc3ccsc32)c1 (configuration not stated)	-68.09%
Cc1csc(N2CCN(Cc3ccn(C)c(=O)c3)CC2)n1	-14.41%
CNC(=O)[C@H]1C[C@@H]2CN(C(=O)Nc3ccc(F)cc3)C[C@H]1O2	-13.75%
COCCN1CCn2c(nc3cc(C(=O)NC(C)C)ccc32)C1	-0.9462%
Cn1nc(C(=O)NC2CC(C)(C)NC(C)(C)C2)cc1NC(=O)C1CC1	-7.718%

Once more, the final 4:

compound,effect
Cc1csc(N2CCN(Cc3ccn(C)c(=O)c3)CC2)n1,-14.41%
CNC(=O)[C@H]1C[C@@H]2CN(C(=O)Nc3ccc(F)cc3)C[C@H]1O2,-13.75%
COCCN1CCn2c(nc3cc(C(=O)NC(C)C)ccc32)C1,-0.9462%
Cn1nc(C(=O)NC2CC(C)(C)NC(C)(C)C2)cc1NC(=O)C1CC1,-7.718%